No constants are given. Whether binding was seen depends on the method and setting. Binding calls can cover weak binding; strength is not graded here.
Target: T1, IsdB NEAT1 (aa residues 144-270) (S. aureus SH1000) (UniProt Q2FZF0)
T1 sequence: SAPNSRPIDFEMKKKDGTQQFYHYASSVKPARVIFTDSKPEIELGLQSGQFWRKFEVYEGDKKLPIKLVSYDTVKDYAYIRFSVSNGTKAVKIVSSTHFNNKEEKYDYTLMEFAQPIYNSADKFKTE
Test: ELISA; IsdB NEAT1-NEAT2, NEAT1 or NEAT2 coated at 1 μg/well, A1 domain from 0 to 5 μg/well, detected with anti-human vWF IgG; both purified

## recombinant A1 domain of human von Willebrand factor (aa residues 460-730), 6xHis-tagged (domain or fragment)
  binding: binds

— article PMC8611056
